Source: the supplement of paper PMC10849652
This is one part of the list. Residues, ends and D or L forms follow the SMILES beside them. *: point of attachment. Cbz = O=C(OCc1ccccc1)*

Sequences of proteins named here, by UniProt entry; tags and fusion partners are left off. A change or cut given only in a name is not applied to a line headed by its entry.
UniProt P15529: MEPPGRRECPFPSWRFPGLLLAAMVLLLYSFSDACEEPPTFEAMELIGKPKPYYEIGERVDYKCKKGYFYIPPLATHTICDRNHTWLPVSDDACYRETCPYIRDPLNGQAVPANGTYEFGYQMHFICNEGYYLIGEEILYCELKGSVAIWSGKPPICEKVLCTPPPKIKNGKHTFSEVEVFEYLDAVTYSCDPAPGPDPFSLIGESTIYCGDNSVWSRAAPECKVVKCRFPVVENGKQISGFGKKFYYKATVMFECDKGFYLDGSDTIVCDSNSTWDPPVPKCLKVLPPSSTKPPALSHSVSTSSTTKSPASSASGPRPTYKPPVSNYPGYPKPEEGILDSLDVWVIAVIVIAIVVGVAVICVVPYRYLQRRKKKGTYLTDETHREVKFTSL
UniProt Q8N350: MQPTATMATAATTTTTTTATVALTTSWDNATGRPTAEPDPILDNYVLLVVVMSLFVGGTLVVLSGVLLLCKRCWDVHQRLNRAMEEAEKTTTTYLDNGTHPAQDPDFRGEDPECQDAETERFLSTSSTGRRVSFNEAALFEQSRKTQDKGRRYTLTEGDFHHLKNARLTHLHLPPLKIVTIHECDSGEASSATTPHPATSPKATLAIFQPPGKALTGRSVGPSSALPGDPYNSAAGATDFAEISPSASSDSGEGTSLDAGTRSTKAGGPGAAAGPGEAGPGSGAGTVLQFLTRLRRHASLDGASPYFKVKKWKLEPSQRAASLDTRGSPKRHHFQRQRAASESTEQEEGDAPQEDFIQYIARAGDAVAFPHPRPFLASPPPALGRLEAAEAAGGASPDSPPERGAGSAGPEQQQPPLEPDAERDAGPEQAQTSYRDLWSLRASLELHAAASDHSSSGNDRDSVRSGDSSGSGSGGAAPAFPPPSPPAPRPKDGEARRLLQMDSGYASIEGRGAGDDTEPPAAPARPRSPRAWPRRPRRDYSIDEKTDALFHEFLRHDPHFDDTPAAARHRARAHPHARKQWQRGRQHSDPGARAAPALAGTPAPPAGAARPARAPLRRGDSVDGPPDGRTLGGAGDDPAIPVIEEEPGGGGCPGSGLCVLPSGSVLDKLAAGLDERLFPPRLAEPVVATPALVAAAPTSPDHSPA
UniProt Q5ZPR3: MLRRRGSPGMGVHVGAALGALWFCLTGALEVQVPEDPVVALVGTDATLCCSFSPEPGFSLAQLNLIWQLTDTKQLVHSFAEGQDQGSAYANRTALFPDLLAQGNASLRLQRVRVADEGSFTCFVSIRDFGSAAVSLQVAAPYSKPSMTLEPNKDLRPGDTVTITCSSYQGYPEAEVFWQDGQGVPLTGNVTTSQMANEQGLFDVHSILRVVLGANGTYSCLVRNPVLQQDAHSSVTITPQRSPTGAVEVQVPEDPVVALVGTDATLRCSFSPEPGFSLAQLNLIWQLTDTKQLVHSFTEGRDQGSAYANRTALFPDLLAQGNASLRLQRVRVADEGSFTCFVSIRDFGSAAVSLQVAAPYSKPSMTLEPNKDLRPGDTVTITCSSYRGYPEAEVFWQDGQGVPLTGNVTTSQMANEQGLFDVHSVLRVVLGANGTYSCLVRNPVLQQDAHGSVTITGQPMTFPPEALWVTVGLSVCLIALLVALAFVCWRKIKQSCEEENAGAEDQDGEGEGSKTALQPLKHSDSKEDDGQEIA
UniProt A6NKD9: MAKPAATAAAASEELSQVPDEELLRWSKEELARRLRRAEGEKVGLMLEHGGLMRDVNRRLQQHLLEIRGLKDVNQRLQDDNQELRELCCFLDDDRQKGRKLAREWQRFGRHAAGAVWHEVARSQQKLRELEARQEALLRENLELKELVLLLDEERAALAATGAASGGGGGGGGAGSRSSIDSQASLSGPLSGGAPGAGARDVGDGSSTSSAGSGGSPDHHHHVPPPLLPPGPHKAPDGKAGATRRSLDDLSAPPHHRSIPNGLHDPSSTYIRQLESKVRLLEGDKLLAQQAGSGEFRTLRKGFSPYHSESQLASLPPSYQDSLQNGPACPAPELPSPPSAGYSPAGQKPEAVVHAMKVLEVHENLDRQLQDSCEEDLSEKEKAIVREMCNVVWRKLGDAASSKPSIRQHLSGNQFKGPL
UniProt O96020, whole entry, looked up: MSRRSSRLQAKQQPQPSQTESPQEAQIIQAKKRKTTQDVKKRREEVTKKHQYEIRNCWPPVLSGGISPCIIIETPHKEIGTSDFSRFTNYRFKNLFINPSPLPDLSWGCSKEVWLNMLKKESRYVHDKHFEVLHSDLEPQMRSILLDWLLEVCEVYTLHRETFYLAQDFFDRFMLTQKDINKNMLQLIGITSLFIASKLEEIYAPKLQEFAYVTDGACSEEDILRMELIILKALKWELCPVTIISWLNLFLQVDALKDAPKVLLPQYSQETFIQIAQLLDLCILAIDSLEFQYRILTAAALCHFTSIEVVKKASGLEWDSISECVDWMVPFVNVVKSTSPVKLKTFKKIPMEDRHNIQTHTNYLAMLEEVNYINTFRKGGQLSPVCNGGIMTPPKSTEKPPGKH
UniProt P20138, whole entry, looked up: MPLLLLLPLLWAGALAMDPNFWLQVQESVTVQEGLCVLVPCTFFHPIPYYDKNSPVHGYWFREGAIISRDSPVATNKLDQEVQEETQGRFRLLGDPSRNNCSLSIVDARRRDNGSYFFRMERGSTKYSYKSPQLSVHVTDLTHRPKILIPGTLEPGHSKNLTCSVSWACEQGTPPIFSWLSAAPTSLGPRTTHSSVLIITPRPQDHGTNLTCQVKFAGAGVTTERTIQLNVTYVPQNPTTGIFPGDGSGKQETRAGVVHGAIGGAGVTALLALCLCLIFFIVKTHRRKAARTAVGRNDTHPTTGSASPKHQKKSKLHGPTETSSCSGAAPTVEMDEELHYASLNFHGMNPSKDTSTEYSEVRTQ
UniProt Q92851: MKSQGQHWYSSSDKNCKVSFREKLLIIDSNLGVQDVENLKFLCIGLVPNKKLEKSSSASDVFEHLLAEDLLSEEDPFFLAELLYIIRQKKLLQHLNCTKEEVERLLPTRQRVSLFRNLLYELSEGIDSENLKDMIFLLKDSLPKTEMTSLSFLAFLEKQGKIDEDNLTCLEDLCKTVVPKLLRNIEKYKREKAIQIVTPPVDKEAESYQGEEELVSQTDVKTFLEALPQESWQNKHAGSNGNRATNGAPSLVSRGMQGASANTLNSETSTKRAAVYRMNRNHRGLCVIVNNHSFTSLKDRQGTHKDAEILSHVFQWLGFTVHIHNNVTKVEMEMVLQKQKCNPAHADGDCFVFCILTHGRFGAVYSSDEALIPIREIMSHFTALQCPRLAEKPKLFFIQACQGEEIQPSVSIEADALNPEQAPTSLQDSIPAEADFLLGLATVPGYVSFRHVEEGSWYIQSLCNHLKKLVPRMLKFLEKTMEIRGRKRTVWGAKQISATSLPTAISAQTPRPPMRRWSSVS
UniProt Q7Z3E2: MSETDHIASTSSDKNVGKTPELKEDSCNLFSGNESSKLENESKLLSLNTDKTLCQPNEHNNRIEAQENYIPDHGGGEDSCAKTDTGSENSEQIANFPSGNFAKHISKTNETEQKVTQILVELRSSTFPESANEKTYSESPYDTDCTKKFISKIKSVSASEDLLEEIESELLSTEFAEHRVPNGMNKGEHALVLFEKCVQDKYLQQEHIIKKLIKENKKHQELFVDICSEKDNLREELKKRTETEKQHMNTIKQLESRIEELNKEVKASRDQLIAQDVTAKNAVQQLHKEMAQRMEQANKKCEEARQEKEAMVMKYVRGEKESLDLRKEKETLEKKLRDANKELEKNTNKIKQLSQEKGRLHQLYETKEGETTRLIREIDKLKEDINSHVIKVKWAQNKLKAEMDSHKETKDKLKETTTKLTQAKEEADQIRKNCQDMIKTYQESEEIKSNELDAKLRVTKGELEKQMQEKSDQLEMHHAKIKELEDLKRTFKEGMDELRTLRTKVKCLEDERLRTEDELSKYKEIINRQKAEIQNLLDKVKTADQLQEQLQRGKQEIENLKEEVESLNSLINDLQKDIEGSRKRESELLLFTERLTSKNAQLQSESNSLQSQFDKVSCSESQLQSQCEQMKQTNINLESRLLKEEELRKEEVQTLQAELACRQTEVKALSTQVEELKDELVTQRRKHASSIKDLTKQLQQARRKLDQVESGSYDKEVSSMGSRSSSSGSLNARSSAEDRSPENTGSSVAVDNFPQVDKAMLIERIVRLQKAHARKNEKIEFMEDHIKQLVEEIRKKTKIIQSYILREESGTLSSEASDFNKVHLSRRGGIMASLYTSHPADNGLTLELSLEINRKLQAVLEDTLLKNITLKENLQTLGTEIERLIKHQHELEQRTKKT
UniProt P55210: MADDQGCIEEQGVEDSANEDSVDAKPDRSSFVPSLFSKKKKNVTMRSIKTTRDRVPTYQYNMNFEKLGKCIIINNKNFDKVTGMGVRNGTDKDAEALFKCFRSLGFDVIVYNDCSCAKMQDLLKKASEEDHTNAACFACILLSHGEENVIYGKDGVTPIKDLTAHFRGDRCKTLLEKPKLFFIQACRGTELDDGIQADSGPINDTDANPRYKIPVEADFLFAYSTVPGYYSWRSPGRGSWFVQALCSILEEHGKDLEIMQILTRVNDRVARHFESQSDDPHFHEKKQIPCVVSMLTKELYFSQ
UniProt A2RUB6: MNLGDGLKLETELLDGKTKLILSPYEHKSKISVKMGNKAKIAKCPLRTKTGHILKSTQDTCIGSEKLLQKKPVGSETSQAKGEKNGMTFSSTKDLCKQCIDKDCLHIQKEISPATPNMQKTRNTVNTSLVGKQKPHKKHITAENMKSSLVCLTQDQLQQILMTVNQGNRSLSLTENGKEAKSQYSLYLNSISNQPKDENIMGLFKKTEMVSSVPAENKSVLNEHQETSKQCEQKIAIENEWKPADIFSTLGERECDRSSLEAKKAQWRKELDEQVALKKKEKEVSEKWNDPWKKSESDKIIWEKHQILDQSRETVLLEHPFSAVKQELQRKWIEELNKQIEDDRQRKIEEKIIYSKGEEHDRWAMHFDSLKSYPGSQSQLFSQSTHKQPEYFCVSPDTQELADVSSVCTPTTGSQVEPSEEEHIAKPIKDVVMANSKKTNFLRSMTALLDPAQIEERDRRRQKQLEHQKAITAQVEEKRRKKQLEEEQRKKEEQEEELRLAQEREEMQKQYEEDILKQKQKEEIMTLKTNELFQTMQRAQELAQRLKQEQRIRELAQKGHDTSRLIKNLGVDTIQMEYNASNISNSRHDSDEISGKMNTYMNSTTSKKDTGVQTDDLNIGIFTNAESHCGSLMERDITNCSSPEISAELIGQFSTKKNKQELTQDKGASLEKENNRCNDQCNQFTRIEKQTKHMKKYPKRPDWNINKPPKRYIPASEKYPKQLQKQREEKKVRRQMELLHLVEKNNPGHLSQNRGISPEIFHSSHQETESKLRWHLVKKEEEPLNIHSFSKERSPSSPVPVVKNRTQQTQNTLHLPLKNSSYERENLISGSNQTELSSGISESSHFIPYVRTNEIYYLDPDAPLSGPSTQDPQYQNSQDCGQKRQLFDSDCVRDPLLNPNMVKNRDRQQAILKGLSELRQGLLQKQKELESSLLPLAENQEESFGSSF
UniProt Q2TAC2: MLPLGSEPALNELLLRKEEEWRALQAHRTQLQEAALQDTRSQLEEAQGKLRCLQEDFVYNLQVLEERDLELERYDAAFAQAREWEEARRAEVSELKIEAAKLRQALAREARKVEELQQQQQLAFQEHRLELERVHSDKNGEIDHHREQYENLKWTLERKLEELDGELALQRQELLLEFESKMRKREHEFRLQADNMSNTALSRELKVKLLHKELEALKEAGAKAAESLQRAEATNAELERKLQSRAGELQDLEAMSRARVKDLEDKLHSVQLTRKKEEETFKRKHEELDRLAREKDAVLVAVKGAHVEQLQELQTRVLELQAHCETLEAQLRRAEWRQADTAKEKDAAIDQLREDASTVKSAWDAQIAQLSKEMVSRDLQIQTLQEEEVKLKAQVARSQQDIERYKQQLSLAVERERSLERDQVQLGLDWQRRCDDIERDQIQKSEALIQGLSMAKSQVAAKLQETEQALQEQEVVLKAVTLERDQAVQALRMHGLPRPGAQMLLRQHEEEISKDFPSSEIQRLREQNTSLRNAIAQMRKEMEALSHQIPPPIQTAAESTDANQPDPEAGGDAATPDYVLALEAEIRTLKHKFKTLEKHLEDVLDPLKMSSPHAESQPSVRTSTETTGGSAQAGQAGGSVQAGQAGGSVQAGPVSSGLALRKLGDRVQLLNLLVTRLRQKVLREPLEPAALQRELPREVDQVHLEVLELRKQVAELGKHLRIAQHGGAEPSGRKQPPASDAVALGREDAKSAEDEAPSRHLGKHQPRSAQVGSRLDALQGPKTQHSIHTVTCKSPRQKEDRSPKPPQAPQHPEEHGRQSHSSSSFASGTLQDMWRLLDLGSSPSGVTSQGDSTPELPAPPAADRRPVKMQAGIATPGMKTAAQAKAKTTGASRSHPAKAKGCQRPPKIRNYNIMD

Tests used:
Experiment in all cases: log2 fold change, soluble protein after heating vs DMSO (PISA); higher = thermal stabilisation; K562 cells, 10 uM, 30 min; active = over 0.2 and 3.5 SD of the protein, either way, in both replicates (recomputed)
[1] = compound: C#Cc1cccc(Nc2ncnc3cc(OCCOC)c(OCCOC)cc23)c1 [erlotinib]
In short: (§1)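 Aliquots of K562 cells (2×10^6 cells/mL) treated with 10 μM compound for 30 min were heated for 3 min over 48°C-58°C. After pooling and extraction in PBS with 0.5% NP-40 at 4°C, soluble protein from a 21,000xg, 90 min spin was quantified by TMTpro 16plex LC-MS/MS with channel sums equalised. Thermal stability is expressed against control samples, from duplicates, as a log2 fold change.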

[2] = compound: C1=CC(=C(C=C1Cl)C2=NC3=NC=CN=C3C(=N2)NC4=CC=NC=C4)F
In short: as §1

[3] = compound: C1=CC(=CC=C1C2=NC3=C(N2)C=C(C=C3)C(=O)N)OC4=CC=C(C=C4)Cl
In short: as §1

[4] = compound: C1=CC2=NC=CN=C2C=C1/C=C/3\C(=O)NC(=O)S3
In short: as §1

[5] = compound: C1=CC=C(C=C1)C2=NC(=C(N2)C3=CC=NC=C3)C4=CC(=C(C=C4)Cl)O
In short: as §1

[6] = compound: C=CC(=O)N1CCC[C@@H](n2nc(-c3ccc(Oc4ccccc4)cc3)c3c(N)ncnc32)C1 [ibrutinib]
In short: as §1

[7] = compound: CC(C)(C)Cn1c(N)nc2ccc(-c3[nH]c(C(C)(C)C)nc3-c3ccc(F)cc3)nc21 [ralimetinib]
In short: as §1

[8] = compound: CC(C)(O)CC(=O)NCCn1ccc2ncnc(Nc3ccc(Oc4cccc(C(F)(F)F)c4)c(Cl)c3)c21
In short: as §1

[9] = compound: CC(C)C1=C2N=C(C=C(N2N=C1)NCC3=CC=CC=C3)NCCCCCCN
In short: as §1

[10] = compound: CC(C)C[C@@H](C=O)NC(=O)[C@H](CC(C)C)NC(=O)[C@H](CC(C)C)NC(=O)OCc1ccccc1
In short: as §1

[11] = compound: CC1=C(C(CC(=O)N1)C2=CC=C(C=C2)C(F)(F)F)C(=O)NC3=C(C=C4C(=C3)C=NN4)F
In short: as §1

[12] = compound: C/C(=N\NC(=O)C1=CC(=CC=C1)S(=O)(=O)N2CCOCC2)/C3=C(C=CC(=C3)Cl)O
In short: as §1

[13] = compound: C1=CC2=C(C=CC(=C2)/C=C\3/C(=O)NC(=NCC4=CC=CS4)S3)N=C1
In short: as §1

[14] = compound: C1=CC=C2C(=C1)C3=NNC4=CC=CC(=C43)C2=O
In short: as §1

[15] = compound: C1COCCN1CCN2C3=CC=CC=C3N=C2NC(=O)C4=CC(=CC=C4)[N+](=O)[O-] [IRAK-1-4 Inhibitor I]
In short: as §1

[16] = compound: CC(=O)c1cnc2ccc(-c3cc(Cl)c(O)c(Cl)c3)nc2c1N[C@H]1CC[C@H](CN(C)C)CC1
In short: as §1

[17] = compound: CC(C)N(C[C@H]1O[C@@H](n2cnc3c(N)ncnc32)[C@H](O)[C@@H]1O)[C@H]1C[C@@H](CCc2nc3cc(C(C)(C)C)ccc3[nH]2)C1 [pinometostat]
In short: as §1

[18] = compound: C1CCN(C1)C(=O)NC2=CC=CC(=C2)NC3=NC=C(C(=N3)NCCC4=CN=CN4)Br
In short: as §1

[19] = compound: C1CN(CCC1(CC2=CC=C(C=C2)Cl)N)C3=NC=NC4=C3C=CN4
In short: as §1

[20] = compound: CC1=C(C2=C(C=C1)C(=O)C3=CC=CC=C3N2CCCN)C
In short: as §1

Measured: log2 fold change

CD82 (UniProt P27701)
inactive: [1] 0.104 | [2] 0.047 | [3] -0.019 | [4] -0.008 | [5] 0.059 | [6] -0.024 | [7] -0.172 | [8] -0.152 | [9] 0.145 | [10] 0.124 | [11] 0.053

CDC37 (UniProt K7EL68)
inactive: [12] 0.064 | [2] -0.023 | [13] 0.067 | [4] -0.004 | [5] -0.068 | [14] 0.053 | [15] 0.061 | [6] 0.006 | [16] -0.011 | [7] -0.125 | [8] 0 | [10] -0.008 | [17] -0.014 | [11] -0.254

CD46 (UniProt P15529)
inactive: [4] -0.027 | [6] 0.134

CBARP (UniProt Q8N350)
inactive: [12] -0.153 | [2] -0.019 | [13] -0.045 | [4] 0.046 | [5] 0.052 | [14] -0.039 | [18] -0.161 | [19] 0.164 | [15] 0.06 | [6] 0.154 | [16] 0.071 | [7] 0.034 | [8] 0.049 | [10] -0.037 | [17] 0.16 | [11] -0.036 | [20] -0.091

CD276 (UniProt Q5ZPR3)
inactive: [4] -0.001 | [15] -0.193 | [6] 0.048 | [17] 0.013

CCDC187, A0A1W2PQX5
inactive: [12] -0.124 | [2] -0.079 | [13] 0.169 | [5] -0.055 | [14] 0.013 | [16] -0.14 | [7] -0.237 | [8] 0.201 | [10] 0.001

CCDC85C (UniProt A6NKD9)
inactive: [12] 0.22 | [2] 0.061 | [13] -0.015 | [4] 0.009 | [5] 0.006 | [14] 0.083 | [18] 0.041 | [19] 0.096 | [15] 0.045 | [6] -0.056 | [16] 0.005 | [7] -0.076 | [8] -0.238 | [10] 0.031 | [17] 0.149 | [20] -0.067

CCND1 (UniProt P24385)
inactive: [5] -0.06 | [7] 0.145 | [10] 0.141

CCNT2 (UniProt O60583)
inactive: [12] 0 | [2] -0.105 | [13] -0.029 | [5] -0.025 | [14] -0.08 | [18] -0.176 | [19] -0.027 | [7] 0.191 | [8] 0.059 | [10] 0.116 | [20] -0.062
active: [16] -0.797

CCNE2 (UniProt O96020)
inactive: [1] -0.145 | [3] 0.068 | [15] -0.284 | [9] 0.008 | [17] 0.064

CD33 (UniProt P20138)
inactive: [1] 0.054 | [2] 0.175 | [3] -0.013 | [5] -0.08 | [18] -0.006 | [19] 0.094 | [7] -0.032 | [8] -0.008 | [9] 0.079 | [10] 0.155 | [20] -0.034

Fetched one by one from the entries so far, two records:
CCNT2 (UniProt O60583)
inactive: [12] 0 | [2] -0.105 | [13] -0.029 | [5] -0.025 | [14] -0.08 | [18] -0.176 | [19] -0.027 | [7] 0.191 | [8] 0.059 | [10] 0.116 | [20] -0.062
active: [16] -0.797

CCDC85C (UniProt A6NKD9)
inactive: [12] 0.22 | [2] 0.061 | [13] -0.015 | [4] 0.009 | [5] 0.006 | [14] 0.083 | [18] 0.041 | [19] 0.096 | [15] 0.045 | [6] -0.056 | [16] 0.005 | [7] -0.076 | [8] -0.238 | [10] 0.031 | [17] 0.149 | [20] -0.067

Going on with the list.

CASP10 isoform 4 (UniProt Q92851)
inactive: [12] 0.138 | [2] 0.026 | [13] 0.124 | [4] -0.046 | [5] 0.051 | [14] -0.04 | [18] -0.13 | [19] -0.21 | [15] -0.132 | [6] -0.083 | [16] 0.083 | [7] 0.095 | [8] -0.13 | [10] -0.015 | [17] 0.047 | [20] 0.262

CCDC186 (UniProt Q7Z3E2)
inactive: [1] 0.295 | [3] -0.059 | [4] 0.061 | [6] 0.049 | [9] 0.108 | [11] -0.04

CD99L2 isoform 5 (UniProt Q8TCZ2)
inactive: [1] 0.089 | [2] -0.047 | [3] -0.039 | [4] -0.039 | [18] 0.054 | [19] -0.035 | [15] 0.028 | [6] -0.04 | [8] -0.015 | [9] 0.216 | [17] -0.019 | [11] -0.045 | [20] -0.335

CASP7 isoform 3 (UniProt P55210)
inactive: [1] 0.133 | [2] -0.105 | [3] 0.217 | [4] 0.118 | [6] -0.005 | [8] -0.003 | [9] 0.035

CD44 (UniProt P16070)
inactive: [12] -0.002 | [13] -0.122 | [14] 0.086 | [18] 0.057 | [19] -0.05 | [16] 0.05 | [20] 0.003

CBFA2T2 isoform 4 (UniProt O43439)
inactive: [1] -0.111 | [3] -0.065 | [4] 0.048 | [6] -0.359 | [9] 0.185

CCDC66 (UniProt A2RUB6)
inactive: [2] -0.127 | [8] -0.193 | [11] -0.021

CCDC57 (UniProt Q2TAC2)
inactive: [1] 0.044 | [2] 0.031 | [3] -0.051 | [4] -0.021 | [5] 0.003 | [18] 0.012 | [19] 0.026 | [15] 0.067 | [6] -0.021 | [7] 0.005 | [8] -0.007 | [9] 0.041 | [10] 0.05 | [17] -0.04 | [20] 0.012
